Laboratory results from publication PMC8584998.
The exact form of at least one protein or probe is not confirmed. The comparison behind a weaker result is the experiment's own reference, which may not be listed here.

Amino acid sequences for entries named in this document (tags omitted). Residues count along the entry.
UniProt O24606, 141-352: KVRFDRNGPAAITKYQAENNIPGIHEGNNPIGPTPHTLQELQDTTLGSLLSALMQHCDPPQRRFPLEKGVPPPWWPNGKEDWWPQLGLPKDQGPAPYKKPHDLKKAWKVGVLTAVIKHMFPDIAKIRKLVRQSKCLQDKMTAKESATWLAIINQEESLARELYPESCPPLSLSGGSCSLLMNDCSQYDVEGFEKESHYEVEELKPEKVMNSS

Target: MBP-EIN3N (UniProt O24606)
Assay: EMSA
Settings: + GST-FHY3 (aa 186-839), 4 or 8 ug; LightShift Chemiluminescent EMSA kit (Pierce), 10 min at room temperature, 6% native polyacrylamide gel; salt and pH not stated; recombinant protein; residues 141-352; protein details: MBP; label: biotin

ATACTTTACAAGGTTCATGCATGCATAC (double strand) [ORE1 EBS]
binding result: binds more weakly
